In patent US20100248226A1, “METHODS FOR MEASURING CELL RESPONSE TO DNA DAMAGING AGENTS USING PROMYELOCYTIC LEUKEMIA PROTEIN NUCLEAR BODIES” (priority 2006, published 2010):
For at least one compound, name, drawing or mass did not settle the structure.

Tested on: PML NBs in NHDF cell line GM05757
Test: Kinase inhibitor effect on the PML NB number increase in response to DSBs
Format: cell-based, human
Source text: Cell Culture and drug treatments. Cell lines used in this study: NDHFs (GM05757, Coriell Cell Repository); human AT fibroblasts (a.k.a. AT5B1, GM05823; Coriell); human NBS-T fibroblasts (gift of J. Lukas, Danish Cancer Society, Copenhagen, Denmark); human ATLD fibroblasts (gift of Y. Shiloh, Tel Aviv University, Tel Aviv, Israel) Saos-2 (American Tissue Culture Type Collection (ATCC), HCT116 and p53 null HCT116 isogenic cells (gift of Dr. B. Vogelstein, Department of Oncology, John Hopkins University, Baltimore, Md.); ATR-DN and ATR-WT cells (gift of Dr. Paul Nghiem, University of Washington Medical School, Seattle, Wash.); Seckel syndrome cells (GM18366, Coriell); Chk2−/−MEFs and isogenic WT MEFs (gift of Dr. T. Mak, University of Toronto, Toronto); and isogenic and U2OS cells stably expressing GFP-PML IV (gift of J. Taylor, U. Wisconsin, Milwaukee, Wis.). NBST-pBabe and NBST-pBabe-NBS1 cells lines were generated by retroviral transduction of NBS-T fibroblasts using either pBabe-Puro alone or encoding full length human NBS1 (gift of J. Lukas), respectively. […] Alternately, asynchronous cell cultures were exposed to whole-cell ionizing radiation (IR)(dose range, 0-20 Gy) using a ^137Cs irradiator (MDS Nordion, Ottawa, Canada) at 1 Gy/min (on ice, aerobic conditions). […]
IF detection of proteins, live-cell imaging and fluorescence recovery after photobleaching (FRAP). […]

Row | Structure (SMILES) | effect on the increase of PML NB number following VP16 treatment (inhibitor 30 min prior to 20 μM VP16, 30 min, over all time points, 5 mM caffeine, 50 μM LY) | effect on PML NB number at 3 h following VP16 treatment (10 μM Chk2 inhibitor II or 20 μM wortmannin pre-treatment, versus VP16 without inhibitor)
1 | O=c1cc(N2CCOCC2)oc2c(-c3ccccc3)cccc12 [LY2942002] | little effect | 
2 | COC[C@H]1OC(=O)c2coc3c2[C@@]1(C)C1=C(C3=O)[C@@H]2CCC(=O)[C@@]2(C)C[C@H]1OC(C)=O [wortmannin] |  | significant effect
